# Measured values as given in patent publication US20200355686A1.
# Sequences of proteins named here, by UniProt entry; tags and fusion partners are left off. A change or cut given only in a name is not applied to a line headed by its entry.
# UniProt Q9Y618: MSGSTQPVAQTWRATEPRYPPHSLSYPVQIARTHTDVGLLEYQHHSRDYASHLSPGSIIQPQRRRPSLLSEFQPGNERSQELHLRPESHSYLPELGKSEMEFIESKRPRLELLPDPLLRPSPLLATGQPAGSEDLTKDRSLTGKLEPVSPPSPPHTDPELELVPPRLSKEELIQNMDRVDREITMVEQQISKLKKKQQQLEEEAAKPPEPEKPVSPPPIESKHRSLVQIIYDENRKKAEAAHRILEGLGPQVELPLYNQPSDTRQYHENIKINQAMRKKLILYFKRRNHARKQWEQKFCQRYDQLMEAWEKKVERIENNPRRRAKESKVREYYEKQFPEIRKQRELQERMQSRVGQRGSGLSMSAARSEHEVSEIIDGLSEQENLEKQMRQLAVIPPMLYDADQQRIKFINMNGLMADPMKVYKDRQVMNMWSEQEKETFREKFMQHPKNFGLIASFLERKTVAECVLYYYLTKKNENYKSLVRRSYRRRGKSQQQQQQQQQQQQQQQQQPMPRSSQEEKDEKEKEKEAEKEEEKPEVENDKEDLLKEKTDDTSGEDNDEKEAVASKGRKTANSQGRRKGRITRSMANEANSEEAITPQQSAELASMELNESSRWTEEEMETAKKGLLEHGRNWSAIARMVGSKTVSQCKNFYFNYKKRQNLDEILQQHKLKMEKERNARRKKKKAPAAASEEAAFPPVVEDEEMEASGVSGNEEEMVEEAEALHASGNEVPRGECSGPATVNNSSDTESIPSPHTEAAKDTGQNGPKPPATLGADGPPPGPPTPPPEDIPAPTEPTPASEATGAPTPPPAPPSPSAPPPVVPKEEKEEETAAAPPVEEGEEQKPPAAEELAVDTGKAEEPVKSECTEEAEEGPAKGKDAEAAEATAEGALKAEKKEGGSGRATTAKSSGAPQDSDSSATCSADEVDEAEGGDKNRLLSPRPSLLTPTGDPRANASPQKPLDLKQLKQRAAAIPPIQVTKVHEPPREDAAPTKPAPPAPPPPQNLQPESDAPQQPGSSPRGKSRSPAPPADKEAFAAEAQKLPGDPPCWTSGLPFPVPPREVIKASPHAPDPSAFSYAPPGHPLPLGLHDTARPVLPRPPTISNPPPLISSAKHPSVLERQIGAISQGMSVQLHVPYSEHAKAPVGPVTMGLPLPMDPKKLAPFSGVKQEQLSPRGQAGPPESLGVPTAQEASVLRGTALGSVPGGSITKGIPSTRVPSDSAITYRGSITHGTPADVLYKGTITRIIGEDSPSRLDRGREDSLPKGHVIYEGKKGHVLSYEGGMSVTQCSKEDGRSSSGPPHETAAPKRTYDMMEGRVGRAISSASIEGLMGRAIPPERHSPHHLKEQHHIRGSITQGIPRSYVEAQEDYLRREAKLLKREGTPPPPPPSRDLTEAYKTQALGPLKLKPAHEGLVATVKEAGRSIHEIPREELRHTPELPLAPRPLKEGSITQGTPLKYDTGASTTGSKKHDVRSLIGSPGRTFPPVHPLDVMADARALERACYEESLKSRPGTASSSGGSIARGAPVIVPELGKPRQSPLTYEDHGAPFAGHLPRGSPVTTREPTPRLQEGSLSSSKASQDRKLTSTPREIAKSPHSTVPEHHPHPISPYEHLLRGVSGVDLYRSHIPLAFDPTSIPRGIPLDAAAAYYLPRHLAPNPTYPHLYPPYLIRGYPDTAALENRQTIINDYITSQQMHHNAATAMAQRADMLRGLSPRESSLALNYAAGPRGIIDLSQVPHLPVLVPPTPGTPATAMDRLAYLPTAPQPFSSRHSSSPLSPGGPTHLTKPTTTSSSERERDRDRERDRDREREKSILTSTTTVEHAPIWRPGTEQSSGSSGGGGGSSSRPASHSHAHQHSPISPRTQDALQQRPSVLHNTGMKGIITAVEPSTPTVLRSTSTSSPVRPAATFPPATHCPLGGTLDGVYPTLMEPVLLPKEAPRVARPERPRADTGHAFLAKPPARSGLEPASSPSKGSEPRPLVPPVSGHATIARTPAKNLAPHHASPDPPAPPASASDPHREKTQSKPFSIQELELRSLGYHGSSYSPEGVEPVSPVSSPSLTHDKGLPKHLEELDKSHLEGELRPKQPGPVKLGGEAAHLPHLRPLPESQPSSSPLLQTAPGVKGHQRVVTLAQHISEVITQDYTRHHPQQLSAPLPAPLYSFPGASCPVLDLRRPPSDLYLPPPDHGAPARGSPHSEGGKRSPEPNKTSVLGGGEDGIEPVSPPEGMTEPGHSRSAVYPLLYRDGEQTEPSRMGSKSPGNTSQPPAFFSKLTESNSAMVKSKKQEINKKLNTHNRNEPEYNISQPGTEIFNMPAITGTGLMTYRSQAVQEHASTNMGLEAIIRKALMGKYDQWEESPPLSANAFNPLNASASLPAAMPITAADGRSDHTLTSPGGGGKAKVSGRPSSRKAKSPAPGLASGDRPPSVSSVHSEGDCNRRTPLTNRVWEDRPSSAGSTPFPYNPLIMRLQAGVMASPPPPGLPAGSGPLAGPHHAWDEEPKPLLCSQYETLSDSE
# Results are given in words; binding and its absence hold for the method and conditions named. Some entries that bind do so weakly or less than the wild type.
# Key:
# [1] = target: BQ323636.1 splice variant of NCOR2 (human) (UniProt Q9Y618); assay: immunofluorescence staining of fixed cells (the methods in paragraph 127 name clone D12 as primary antibody); consistent with IHC
# [2] = target: BQ323636.1 splice variant of NCOR2 (human) (UniProt Q9Y618); assay: western blot, antibody dilution 1:1000
binder,measurement,setting,value
"mouse monoclonal antibody specific to BQ323636.1 (the monoclonal antibody of the present invention, clone not named) (antibody, V domains shown) VH: EVKLEESGGGLVQPGGSMKLSCVASGFTFSNYWMNWVRQSPEKGLEWVAEIRLRSSYYATHYAESVKGRFTISRDDSKSSVYLQMNNLRAEDTGIYYCTMITTGYFDVWGAGTTVTVSS VL: DVVMTQTPLSLPVSLGDQASISCRSSQSLIHSNGNTYLHWYLQKPGQSPKLLIYKVSNRFSGVPDRFSGSGSGTDFTLKISRVEAEDLGVYFCSQITHIPRTFGGGTKLEIKR",binding,[1],binds
same,binding,[2],binds
